# Values quoted from earlier work in patent US11850244B2, “Drug delivery systems and methods for treatment of bladder dysfunction or disorder using trospium” (TARIS BIOMEDICAL LLC, priority 2012, dated 2023).
# Some entries share one result that the patent states for a list of compounds.
# Settings: oral therapeutic doses for 5 days; cited from earlier work
smiles,measurement,value
"CCN(CC)CC#CCOC(=O)C(O)(c1ccccc1)C1CCCCC1 (stereo not shown) [Oxybutynin, oxybutynin chloride]",active compound excreted in the human's urine,< 5%
